Measured values reported in PMC8922104.
These are yes or no findings as the source states them, for the method shown. Binding seen in cells or lysates may run through a third protein. Some entries that bind do so weakly or less than the wild type.

Sequences of proteins named here, by UniProt entry; tags and fusion partners are left off.
UniProt P01106: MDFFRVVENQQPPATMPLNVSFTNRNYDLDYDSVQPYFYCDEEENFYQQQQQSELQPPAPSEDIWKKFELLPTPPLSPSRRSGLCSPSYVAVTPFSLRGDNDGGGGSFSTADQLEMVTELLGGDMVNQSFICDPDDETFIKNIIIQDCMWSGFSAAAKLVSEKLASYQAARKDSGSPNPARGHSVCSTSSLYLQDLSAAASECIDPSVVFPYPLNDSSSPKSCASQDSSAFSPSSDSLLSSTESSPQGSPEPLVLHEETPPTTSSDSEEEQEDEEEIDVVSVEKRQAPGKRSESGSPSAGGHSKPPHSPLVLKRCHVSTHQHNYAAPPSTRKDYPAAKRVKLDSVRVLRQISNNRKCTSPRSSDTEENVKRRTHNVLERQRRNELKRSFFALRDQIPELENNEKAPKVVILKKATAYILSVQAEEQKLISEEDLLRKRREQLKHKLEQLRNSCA
UniProt Q9UNE7: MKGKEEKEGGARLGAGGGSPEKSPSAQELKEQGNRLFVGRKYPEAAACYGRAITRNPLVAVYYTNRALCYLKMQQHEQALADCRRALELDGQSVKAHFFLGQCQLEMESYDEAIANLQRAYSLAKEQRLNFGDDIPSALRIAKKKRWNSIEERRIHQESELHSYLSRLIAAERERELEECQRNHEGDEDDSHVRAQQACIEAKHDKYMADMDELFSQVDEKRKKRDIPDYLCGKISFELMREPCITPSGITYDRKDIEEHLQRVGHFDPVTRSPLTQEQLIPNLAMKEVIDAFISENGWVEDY

Target: c‐Myc protein (human (endogenous in MOLM-13)) (UniProt P01106)
Experiment: co-IP; endogenous co-IP from MOLM-13 cells treated with WBC100 (2 uM) or DMSO in the presence of MG-132 (10 uM) for 4 h; NP40 lysis buffer; c-Myc antibody and protein G magnetic beads, 4 °C; blots for CHIP and Hsp70

In the case of “E3 ubiquitin ligase CHIP (from UniProt Q9UNE7 1-303) (enzyme)”, the binding is reported as “binds”.
